Laboratory results published in publication PMC9873567.
These are yes or no findings as the source states them, for the method shown. For some of these results: In cells and extracts the contact can be indirect. Some binding calls cover weakened binding; strength is not graded here. Tags and fused reporters may be left off the sequences shown.

Columns and labels:
[1] = biological target: T1, PUB30-MYC (Arabidopsis thaliana) (UniProt Q058P4); experiment: co-IP; Arabidopsis protoplasts (WT or serk1 bak1-5) transfected with ERECTA-HA and PUB30/31-MYC (WT or phosphor-mutated); 2 uM MG132 1 h, 5 uM EPFL6 1 h; IP anti-MYC, blot anti-HA
T1 sequence: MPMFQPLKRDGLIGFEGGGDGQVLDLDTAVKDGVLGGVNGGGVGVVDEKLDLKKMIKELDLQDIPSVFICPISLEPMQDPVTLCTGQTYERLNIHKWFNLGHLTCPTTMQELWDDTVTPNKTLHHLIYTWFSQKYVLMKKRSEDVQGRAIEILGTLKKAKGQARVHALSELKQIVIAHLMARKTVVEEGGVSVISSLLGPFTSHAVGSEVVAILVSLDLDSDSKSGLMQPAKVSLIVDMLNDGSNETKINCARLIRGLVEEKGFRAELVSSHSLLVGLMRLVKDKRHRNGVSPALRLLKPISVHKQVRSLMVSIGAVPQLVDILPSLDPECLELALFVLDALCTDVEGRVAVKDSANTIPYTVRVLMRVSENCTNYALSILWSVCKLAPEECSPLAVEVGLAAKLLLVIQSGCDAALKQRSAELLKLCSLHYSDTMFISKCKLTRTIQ

[2] = biological target: T2, PUB30_(T155D)-MYC (Arabidopsis thaliana) (UniProt Q058P4); experiment: as above
T2 sequence: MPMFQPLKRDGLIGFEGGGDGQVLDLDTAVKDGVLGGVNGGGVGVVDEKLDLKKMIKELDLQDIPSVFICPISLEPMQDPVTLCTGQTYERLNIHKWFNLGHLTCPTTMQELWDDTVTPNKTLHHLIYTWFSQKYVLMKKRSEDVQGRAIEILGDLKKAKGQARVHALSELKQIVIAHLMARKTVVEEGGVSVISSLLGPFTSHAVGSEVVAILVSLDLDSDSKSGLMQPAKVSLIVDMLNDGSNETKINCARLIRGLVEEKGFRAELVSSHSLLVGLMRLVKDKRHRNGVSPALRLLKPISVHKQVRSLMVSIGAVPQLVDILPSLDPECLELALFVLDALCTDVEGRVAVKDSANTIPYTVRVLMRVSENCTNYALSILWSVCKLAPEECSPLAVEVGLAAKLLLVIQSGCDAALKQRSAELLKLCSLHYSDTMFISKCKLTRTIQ

[3] = biological target: T3, PUB31_(T151D)-MYC (Arabidopsis thaliana) (UniProt Q9FHN9); experiment: as above
T3 sequence: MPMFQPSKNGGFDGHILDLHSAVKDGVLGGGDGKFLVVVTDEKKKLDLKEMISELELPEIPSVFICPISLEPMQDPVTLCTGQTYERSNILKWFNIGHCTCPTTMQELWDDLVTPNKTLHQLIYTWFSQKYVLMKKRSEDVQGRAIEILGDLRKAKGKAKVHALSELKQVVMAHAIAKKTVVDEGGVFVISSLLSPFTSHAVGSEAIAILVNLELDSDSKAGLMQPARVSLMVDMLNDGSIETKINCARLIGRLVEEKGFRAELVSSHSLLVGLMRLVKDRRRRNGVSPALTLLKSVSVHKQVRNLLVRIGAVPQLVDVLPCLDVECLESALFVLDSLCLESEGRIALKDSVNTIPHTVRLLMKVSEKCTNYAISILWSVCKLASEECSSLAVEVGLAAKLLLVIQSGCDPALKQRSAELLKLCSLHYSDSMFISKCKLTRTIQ

[4] = biological target: T4, PUB31-MYC (Arabidopsis thaliana) (UniProt Q9FHN9); experiment: as above
T4 sequence: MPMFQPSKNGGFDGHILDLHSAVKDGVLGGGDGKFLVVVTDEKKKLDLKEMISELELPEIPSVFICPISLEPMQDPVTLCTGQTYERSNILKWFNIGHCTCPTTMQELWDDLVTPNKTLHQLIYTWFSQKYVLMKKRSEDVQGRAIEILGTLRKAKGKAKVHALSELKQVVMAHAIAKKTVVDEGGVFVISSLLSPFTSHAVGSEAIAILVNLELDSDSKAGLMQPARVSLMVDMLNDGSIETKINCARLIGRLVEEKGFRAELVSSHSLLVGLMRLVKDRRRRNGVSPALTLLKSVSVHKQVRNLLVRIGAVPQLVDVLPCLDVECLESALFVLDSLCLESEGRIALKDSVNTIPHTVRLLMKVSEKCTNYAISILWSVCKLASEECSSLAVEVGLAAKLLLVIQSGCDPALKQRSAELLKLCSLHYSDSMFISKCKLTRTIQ

[5] = biological target: T5, PUB30-FLAG (Arabidopsis thaliana) (UniProt Q058P4); experiment: co-IP; transgenic Arabidopsis seedlings with PUB30-FLAG or PUB31-FLAG and ERECTA-YFP; MG132, then buffer only, MEPF2 (2.5 uM) or MEPFL6 (2.5 uM) for 3 h; solubilized microsomal fraction; IP anti-FLAG, blot anti-GFP
T5 sequence: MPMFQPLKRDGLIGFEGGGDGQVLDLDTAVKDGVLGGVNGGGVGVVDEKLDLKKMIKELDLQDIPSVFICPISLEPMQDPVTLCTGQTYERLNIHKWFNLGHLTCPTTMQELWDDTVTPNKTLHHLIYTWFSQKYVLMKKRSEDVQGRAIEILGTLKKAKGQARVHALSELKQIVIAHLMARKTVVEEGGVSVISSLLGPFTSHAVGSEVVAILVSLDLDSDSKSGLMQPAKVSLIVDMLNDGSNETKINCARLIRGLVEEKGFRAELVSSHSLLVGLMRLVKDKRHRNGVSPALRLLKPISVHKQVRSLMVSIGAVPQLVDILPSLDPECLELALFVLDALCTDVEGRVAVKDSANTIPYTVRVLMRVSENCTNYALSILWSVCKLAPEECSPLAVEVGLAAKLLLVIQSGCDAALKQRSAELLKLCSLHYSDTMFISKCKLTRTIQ

[6] = biological target: T6, PUB31-FLAG (Arabidopsis thaliana) (UniProt Q9FHN9); experiment: as above
T6 sequence: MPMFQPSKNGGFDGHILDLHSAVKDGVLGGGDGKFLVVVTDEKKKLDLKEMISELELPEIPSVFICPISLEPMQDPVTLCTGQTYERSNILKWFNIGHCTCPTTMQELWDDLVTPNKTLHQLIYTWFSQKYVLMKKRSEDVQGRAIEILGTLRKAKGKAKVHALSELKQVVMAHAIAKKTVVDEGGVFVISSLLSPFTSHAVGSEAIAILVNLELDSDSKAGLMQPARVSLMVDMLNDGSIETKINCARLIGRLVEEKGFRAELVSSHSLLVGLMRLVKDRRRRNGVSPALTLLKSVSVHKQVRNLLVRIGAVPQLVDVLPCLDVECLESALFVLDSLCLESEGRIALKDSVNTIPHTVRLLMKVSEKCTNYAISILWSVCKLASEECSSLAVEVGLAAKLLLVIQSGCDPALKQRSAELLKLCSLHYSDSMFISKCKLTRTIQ

[7] = biological target: T7, BD-PUB30 (full length PUB30 as bait) (Arabidopsis thaliana) (UniProt Q058P4); experiment: two-hybrid; yeast strain AH109; bait on the DNA-binding domain (pGBKT7), prey on the activation domain (pGADT7); growth on SD (-Trp, -Leu, -His) with 1 mM 3-AT, tenfold serial dilutions
T7 sequence: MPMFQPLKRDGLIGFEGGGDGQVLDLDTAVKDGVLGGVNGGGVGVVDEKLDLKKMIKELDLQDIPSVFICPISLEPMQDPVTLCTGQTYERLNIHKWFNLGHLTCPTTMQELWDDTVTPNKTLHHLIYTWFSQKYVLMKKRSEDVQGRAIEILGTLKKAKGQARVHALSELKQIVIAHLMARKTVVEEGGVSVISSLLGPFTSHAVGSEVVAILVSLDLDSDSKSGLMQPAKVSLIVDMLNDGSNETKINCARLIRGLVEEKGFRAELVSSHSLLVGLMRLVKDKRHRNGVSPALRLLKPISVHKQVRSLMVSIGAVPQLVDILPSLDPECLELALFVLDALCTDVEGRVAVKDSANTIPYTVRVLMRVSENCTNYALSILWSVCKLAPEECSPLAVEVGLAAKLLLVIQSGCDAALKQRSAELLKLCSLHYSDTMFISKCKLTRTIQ

[8] = biological target: T8, BD-PUB31 (full length PUB31 as bait) (Arabidopsis thaliana) (UniProt Q9FHN9); experiment: as above
T8 sequence: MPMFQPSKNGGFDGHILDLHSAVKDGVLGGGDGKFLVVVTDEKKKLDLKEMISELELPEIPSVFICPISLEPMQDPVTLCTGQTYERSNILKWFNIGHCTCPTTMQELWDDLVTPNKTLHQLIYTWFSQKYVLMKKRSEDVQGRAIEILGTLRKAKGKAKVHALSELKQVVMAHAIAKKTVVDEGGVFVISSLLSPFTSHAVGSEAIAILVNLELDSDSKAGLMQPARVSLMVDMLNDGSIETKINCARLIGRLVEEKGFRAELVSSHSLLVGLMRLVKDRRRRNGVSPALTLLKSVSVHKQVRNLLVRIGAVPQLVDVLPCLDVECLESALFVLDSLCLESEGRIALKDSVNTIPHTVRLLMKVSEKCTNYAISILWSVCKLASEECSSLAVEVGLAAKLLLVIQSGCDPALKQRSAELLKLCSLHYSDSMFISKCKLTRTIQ

B1: ERECTA-HA (receptor, UniProt Q42371 25-976)
chain: EEGATLLEIKKSFKDVNNVLYDWTTSPSSDYCVWRGVSCENVTFNVVALNLSDLNLDGEISPAIGDLKSLLSIDLRGNRLSGQIPDEIGDCSSLQNLDLSFNELSGDIPFSISKLKQLEQLILKNNQLIGPIPSTLSQIPNLKILDLAQNKLSGEIPRLIYWNEVLQYLGLRGNNLVGNISPDLCQLTGLWYFDVRNNSLTGSIPETIGNCTAFQVLDLSYNQLTGEIPFDIGFLQVATLSLQGNQLSGKIPSVIGLMQALAVLDLSGNLLSGSIPPILGNLTFTEKLYLHSNKLTGSIPPELGNMSKLHYLELNDNHLTGHIPPELGKLTDLFDLNVANNDLEGPIPDHLSSCTNLNSLNVHGNKFSGTIPRAFQKLESMTYLNLSSNNIKGPIPVELSRIGNLDTLDLSNNKINGIIPSSLGDLEHLLKMNLSRNHITGVVPGDFGNLRSIMEIDLSNNDISGPIPEELNQLQNIILLRLENNNLTGNVGSLANCLSLTVLNVSHNNLVGDIPKNNNFSRFSPDSFIGNPGLCGSWLNSPCHDSRRTVRVSISRAAILGIAIGGLVILLMVLIAACRPHNPPPFLDGSLDKPVTYSTPKLVILHMNMALHVYEDIMRMTENLSEKYIIGHGASSTVYKCVLKNCKPVAIKRLYSHNPQSMKQFETELEMLSSIKHRNLVSLQAYSLSHLGSLLFYDYLENGSLWDLLHGPTKKKTLDWDTRLKIAYGAAQGLAYLHHDCSPRIIHRDVKSSNILLDKDLEARLTDFGIAKSLCVSKSHTSTYVMGTIGYIDPEYARTSRLTEKSDVYSYGIVLLELLTRRKAVDDESNLHHLIMSKTGNNEVMEMADPDITSTCKDLGVVKKVFQLALLCTKRQPNDRPTMHQVTRVLGSFMLSEQPPAATDTSATLAGSCYVDEYANLKTPHSVNCSSMSASDAQLFLRFGQVISQNSE
- binding [1]: binds
- binding [2]: binds
- binding [3]: binds
- binding [4]: binds

B2: ERECTA-YFP (receptor, UniProt Q42371 25-976)
chain: EEGATLLEIKKSFKDVNNVLYDWTTSPSSDYCVWRGVSCENVTFNVVALNLSDLNLDGEISPAIGDLKSLLSIDLRGNRLSGQIPDEIGDCSSLQNLDLSFNELSGDIPFSISKLKQLEQLILKNNQLIGPIPSTLSQIPNLKILDLAQNKLSGEIPRLIYWNEVLQYLGLRGNNLVGNISPDLCQLTGLWYFDVRNNSLTGSIPETIGNCTAFQVLDLSYNQLTGEIPFDIGFLQVATLSLQGNQLSGKIPSVIGLMQALAVLDLSGNLLSGSIPPILGNLTFTEKLYLHSNKLTGSIPPELGNMSKLHYLELNDNHLTGHIPPELGKLTDLFDLNVANNDLEGPIPDHLSSCTNLNSLNVHGNKFSGTIPRAFQKLESMTYLNLSSNNIKGPIPVELSRIGNLDTLDLSNNKINGIIPSSLGDLEHLLKMNLSRNHITGVVPGDFGNLRSIMEIDLSNNDISGPIPEELNQLQNIILLRLENNNLTGNVGSLANCLSLTVLNVSHNNLVGDIPKNNNFSRFSPDSFIGNPGLCGSWLNSPCHDSRRTVRVSISRAAILGIAIGGLVILLMVLIAACRPHNPPPFLDGSLDKPVTYSTPKLVILHMNMALHVYEDIMRMTENLSEKYIIGHGASSTVYKCVLKNCKPVAIKRLYSHNPQSMKQFETELEMLSSIKHRNLVSLQAYSLSHLGSLLFYDYLENGSLWDLLHGPTKKKTLDWDTRLKIAYGAAQGLAYLHHDCSPRIIHRDVKSSNILLDKDLEARLTDFGIAKSLCVSKSHTSTYVMGTIGYIDPEYARTSRLTEKSDVYSYGIVLLELLTRRKAVDDESNLHHLIMSKTGNNEVMEMADPDITSTCKDLGVVKKVFQLALLCTKRQPNDRPTMHQVTRVLGSFMLSEQPPAATDTSATLAGSCYVDEYANLKTPHSVNCSSMSASDAQLFLRFGQVISQNSE
- binding [5]: binds
- binding [6]: binds

B3: kinase domain of BSK1 as prey (domain or fragment, UniProt Q944A7 76-331)
chain: DNIVSESGEKAPNLVYKGRLQNRRWIAVKKFTKMAWPEPKQFAEEAWGVGKLRHNRLANLIGYCCDGDERLLVAEFMPNDTLAKHLFHWENQTIEWAMRLRVGYYIAEALDYCSTEGRPLYHDLNAYRVLFDEDGDPRLSCFGLMKNSRDGKSYSTNLAYTPPEYLRNGRVTPESVTYSFGTVLLDLLSGKHIPPSHALDMIRGKNIILLMDSHLEGKFSTEEATVVVELASQCLQYEPRERPNTKDLVATLAPLQ
- binding [7]: no binding
- binding [8]: no binding

B4: kinase domain of YDA as prey (domain or fragment, UniProt Q9CAD5 400-656)
chain: WKKGRLLGMGSFGHVYLGFNSESGEMCAMKEVTLCSDDPKSRESAQQLGQEISVLSRLRHQNIVQYYGSETVDDKLYIYLEYVSGGSIYKLLQEYGQFGENAIRNYTQQILSGLAYLHAKNTVHRDIKGANILVDPHGRVKVADFGMAKHITAQSGPLSFKGSPYWMAPEVIKNSNGSNLAVDIWSLGCTVLEMATTKPPWSQYEGVPAMFKIGNSKELPDIPDHLSEEGKDFVRKCLQRNPANRPTAAQLLDHAFV
- binding [7]: no binding
- binding [8]: no binding
